{"source": "patent US7811610B2", "about": "“Anti-inflammatory pharmaceutical compositions for reducing inflammation and the treatment or prevention of gastric toxicity” (priority 2002, dated 2010)", "system": "PGE2 synthesis in AGS human gastric mucosal cells", "experiment": "Inhibition of PGE2 synthesis in AGS gastric mucosal cells (A23187), including combination index", "format": "cell-based"}
{"molecule": "COc1ccc2cc([C@H](C)C(=O)O)ccc2c1", "note": "[Naproxen, 2-naphthaleneacetic acid, 5 methoxy-α-methyl-(+)]", "values": [{"measurement": "AGS/A549 (therapeutic index, IC50 ratio)", "value": 0.03}]}
